Here are results for 2 compounds from US20100249123A1, “NOVEL BENZAMIDE DERIVATIVES AS MODULATORS OF THE FOLLICLE STIMULATING HORMONE” (ADDEX PHARMA SA, priority 2007, published 2010).

Chains of the proteins cited; added tags and fusions are not shown. Residues count along the entry.
UniProt P20395, 18-692 limits assumed: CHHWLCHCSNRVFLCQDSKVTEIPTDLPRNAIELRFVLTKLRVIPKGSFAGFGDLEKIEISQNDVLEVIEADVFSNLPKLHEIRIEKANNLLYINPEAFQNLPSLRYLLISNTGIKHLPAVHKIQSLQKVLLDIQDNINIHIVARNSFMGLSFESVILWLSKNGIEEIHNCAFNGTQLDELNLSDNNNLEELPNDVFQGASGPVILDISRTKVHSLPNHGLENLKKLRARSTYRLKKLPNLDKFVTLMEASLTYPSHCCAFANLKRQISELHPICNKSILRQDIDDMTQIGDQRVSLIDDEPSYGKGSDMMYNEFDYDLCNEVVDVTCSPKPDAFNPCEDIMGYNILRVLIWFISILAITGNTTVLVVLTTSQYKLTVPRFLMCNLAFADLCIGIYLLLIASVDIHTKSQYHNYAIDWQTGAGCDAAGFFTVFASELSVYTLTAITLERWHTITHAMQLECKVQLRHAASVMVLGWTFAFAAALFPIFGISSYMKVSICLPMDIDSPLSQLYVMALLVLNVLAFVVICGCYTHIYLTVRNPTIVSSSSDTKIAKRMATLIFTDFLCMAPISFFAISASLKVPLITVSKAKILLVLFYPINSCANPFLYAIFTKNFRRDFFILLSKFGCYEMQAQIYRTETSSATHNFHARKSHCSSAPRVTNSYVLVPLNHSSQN

Each structure is given as a SMILES string. The structures given here were assigned with low confidence; some may be wrong.

The target of this test is rat follicle stimulating hormone receptor (rFSHR) (Rattus norvegicus, UniProt P20395). Briefly: Intracellular cAMP measurement (HTRF) assay, antagonism of EC70 of hFSH. Conditions: read-out: Class (IC50 to antagonise an EC70 of FSH receptors agonist such as hFSH), HEK293 cells expressing rFSHR, 1 ng/ml hFSH (EC70). The source says:
Intracellular cAMP Measurement Assay
The Intracellular cAMP measurement assay is a functional cell-based assay used to study GPCR function. This method relies on a Time-Resolved Fluorescence (HTRF) assay to measure the cAMP accumulation upon receptor-mediated Gs protein activation in cells expressing recombinant GPCR or in cells from native tissues. In brief, this method is a competitive immunoassay between native cAMP produced by cells and the cAMP labeled with a fluorescent tag. The endogenously produced cAMP competes with exogenous added d2-labelled cAMP for the cAMP binding site on a Eu3+ cryptate labelled anti-cAMP antibody. The d2-labelled cAMP and the Eu^3+ labelled antibody produces a basal fluroresence via HTRF and therefore an intracellular increase in unlabelled cAMP is detected as decrease in this signal. cAMP is one of the most important intracellular mediators. […]
HTRF cAMP assay: On the day of the experiment, cells were detached from the Petri dish and distributed in a low volume, black-walled 384-well plate at a density of 5,000 cells/well in an assay buffer containing 1 mM IBMX to prevent cAMP degradation by cytoplasmic phosphodiesterases. […] Assay was then incubated for 1 hr at room temperature, and HTRF signal was measured after excitation at 337 nm, and dual emission at 620 and 665 nm, using a RubyStar fluorimeter (BMG Labtechnologies). […]
In general terms: TR-FRET usually uses a lanthanide donor and a delayed reading to cut background.

On to `COc1ccc(C(=O)Nc2ccc(C(C)(C)CNC(=O)c3nn(C)c4ccccc34)cc2)cc1OC`, for which the IC50 lay within 150 to 400 nM. On to `COc1ccc(C(=O)Nc2ccc(C(C)(C)CNC(=O)c3ccccc3)cc2)cc1OC`, for which the IC50 was 150 to 400 nM.
